{"source": "paper PMC12040169", "about": "(PLOS Biology, 2025)", "note": "This is one part of the list."}
{"tested_on": "T1, CTL2-GFP (C. trachomatis L2/434/Bu, GFP-expressing)", "T1 construct": "L2/434/Bu, GFP-expressing", "set-up": "species or system HeLa; Intracellular C. trachomatis growth in HeLa cells, bulk GFP fluorescence relative to DMSO", "details": "bulk GFP, single well; 28.5 h, 10 µM; inhibitor", "units": {"% of control remaining": "%"}}
{"smiles": "CC(C)(O)C#Cc1ccc(C(=O)NC(Cc2c[nH]c3ccccc23)C(=O)O)cc1", "note": "(stereo not shown) [CBK267703]", "% of control remaining": 102.874}
{"smiles": "O=C(c1ccccc1)c1cc(Cl)ccc1-n1ccnc1Br", "note": "[CBK016011]", "% of control remaining": 91.1735}
{"smiles": "O=C(O)CCN1C(=O)/C(=C/c2ccc(C(=O)O)cc2)SC1=S", "note": "[CBK262785]", "% of control remaining": 136.648}
{"smiles": "COCCN(CC1CC1)C(=O)c1cc(NC(C)=O)ccc1Cl", "note": "[CBK304352]", "% of control remaining": 116.79}
{"smiles": "CN1CCN(CC(=O)Nc2cc(C(F)(F)F)ccc2Cl)C(C)(C)C1", "note": "[CBK306363]", "% of control remaining": 133.863}
{"smiles": "c1cncc(Nc2cccc(-c3cnc4ccccc4c3)n2)c1", "note": "[CBK037638]", "% of control remaining": 129.085}
{"smiles": "CC1(C)CC(N2CNC(=N)N(C#N)C2)CC(C)(C)N1", "note": "[CBK262008]", "% of control remaining": 103.269}
{"smiles": "COc1ccc(C(=O)Nc2nnc(C3=COCCO3)o2)cc1", "note": "[CBK287409]", "% of control remaining": 156.757}
{"smiles": "CC(=O)N1CCN(C[C@@H]2C=C(C)[C@H](Cc3nnc(C(C)(C)C)o3)C[C@H]2C(C)C)CC1", "note": "[CBK289221]", "% of control remaining": 137.432}
{"smiles": "CC1CCc2nc(NC(=O)Cn3cc(C(=O)Nc4ccc(F)cc4)ccc3=O)sc2C1", "note": "(stereo not shown) [CBK286053]", "% of control remaining": 134.208}
{"smiles": "Cc1cc(C)cc(CNC(=O)NCCc2cccs2)c1", "note": "[CBK043459]", "% of control remaining": 151.783}
{"smiles": "Cc1cc(NC(=O)CN2CCC(Cc3ccccc3)CC2)nc2c1c(=O)oc1ccccc12", "note": "[CBK291261]", "% of control remaining": 139.873}
{"smiles": "O=C(CC(NC1CCCCC1)C(=O)O)Nc1cccc(Cl)c1", "note": "(stereo not shown) [CBK266916]", "% of control remaining": 141.17}
{"smiles": "Cc1ccc2c(c1)OC(C)(C)CC2NC(=O)C1CCN(C)CC1", "note": "(stereo not shown) [CBK307626]", "% of control remaining": 106.985}
{"smiles": "O=C(CNS(=O)(=O)Cc1ccccc1[N+](=O)[O-])N1CCOCC1", "note": "[CBK042220]", "% of control remaining": 121.298}
{"smiles": "Cc1ccc2c(c1)cc(C)c1nn(CC(=O)NC(C)(C)C)c(=O)n12", "note": "[CBK283875]", "% of control remaining": 115.108}
{"smiles": "C=CCn1c2ccccc2c2nnc(SCC(=O)Nc3c(C)n(C)n(-c4ccccc4)c3=O)nc21", "note": "[CBK263892]", "% of control remaining": 137.173}
{"smiles": "COc1ccc(-c2nnc(SCC(=O)c3ccc(C)o3)o2)cc1", "note": "[CBK268334]", "% of control remaining": 110.998}
{"smiles": "C=CCN(c1ccccc1)S(=O)(=O)c1ccc(C(C)(C)CC)cc1", "note": "[CBK200036]", "% of control remaining": 112.041}
{"smiles": "O=C1CN(Cc2ccc3ccccc3n2)CCN1C1CCCC1", "note": "[CBK281961]", "% of control remaining": 88.4772}
{"smiles": "CCOC(=O)N1CCC(NS(=O)(=O)c2ccc(C)c([N+](=O)[O-])c2)CC1", "note": "[CBK045468]", "% of control remaining": 113.438}
{"smiles": "O=C(NCc1cccc(C(F)(F)F)c1)c1cnoc1-c1ccc(Br)cc1", "note": "[CBK153718]", "% of control remaining": 118.629}
{"smiles": "O=C(NCc1ccc2c(c1)CCN2C(=O)c1ccncc1)c1cccnc1", "note": "[CBK288585]", "% of control remaining": 92.6178}
{"smiles": "O=C(COc1cccc2ccccc12)Nc1cccnc1", "note": "[CBK263015]", "% of control remaining": 94.5364}
{"smiles": "O=c1[nH]cc(S(=O)(=O)N2CCN(Cc3ccccc3Cl)CC2)c(=O)[nH]1", "note": "[CBK285889]", "% of control remaining": 119.335}
{"smiles": "COc1cc(-c2nnc(NC(=O)c3ccc(C)cc3)o2)cc(OC)c1OC", "note": "[CBK287699]", "% of control remaining": 119.913}
{"smiles": "CC(C)C(=O)Nc1ccc(Oc2ccc(C(=O)O)c(C(=O)O)c2)cc1", "note": "[CBK263463]", "% of control remaining": 100}
{"smiles": "O=C(CSCc1ccc(Cl)cc1)Nc1ccc(S(=O)(=O)N2CCCCCC2)cc1", "note": "[CBK267017]", "% of control remaining": 46.8711}
{"smiles": "O=C(CSCc1cccc2ccccc12)Nc1c[nH]c(=O)[nH]c1=O", "note": "[CBK268500]", "% of control remaining": 131.598}
{"smiles": "O=C(O)c1ccc(NC(=O)c2cc(-n3cnnc3)ccc2Cl)cc1", "note": "[CBK286613]", "% of control remaining": 79.8507}
{"smiles": "COc1ccc2oc(-c3ccc(NC(=O)c4cccc5ccccc45)cc3)nc2c1", "note": "[CBK267610]", "% of control remaining": 84.5451}
{"smiles": "Cc1ccc(C2NS(=O)(=O)NC2=N)cc1", "note": "(stereo not shown) [CBK263848]", "% of control remaining": 109.992}
{"smiles": "CC1Cc2ccccc2N1C(=O)Cn1c(=O)n(C)c2ncccc21", "note": "(stereo not shown) [CBK283793]", "% of control remaining": 122.908}
{"smiles": "O=C(Nc1ccccc1N1CCCNCC1)c1ccnc2ccccc12", "note": "[CBK036325T]", "% of control remaining": 116.283}
{"smiles": "CSc1nsc(SCC(=O)N(c2ccccc2)c2ccccc2)n1", "note": "[CBK269361]", "% of control remaining": 145.654}
{"smiles": "COc1cc(OC)cc(C(=O)Nc2ncccc2OCCCC#N)c1", "note": "[CBK304899]", "% of control remaining": 154.315}
{"smiles": "CS(=O)(=O)N(CC(=O)N1CCN(Cc2ccc3c(c2)OCO3)CC1)c1cccc(F)c1", "note": "[CBK074572]", "% of control remaining": 91.2691}
{"smiles": "COCC(=O)N1CC[C@H](c2nnc(-c3ccncc3)o2)C1", "note": "[CBK289413]", "% of control remaining": 131.005}
{"smiles": "Cc1nc2c(c(C)c1CC(=O)NCc1cccc(C#N)c1)c(=O)[nH]n2C", "note": "[CBK304959]", "% of control remaining": 128.012}
{"smiles": "COc1ccc(C(=O)CCC(=O)Nc2cccnc2)c(OC)c1", "note": "[CBK266923]", "% of control remaining": 133.626}
{"smiles": "CC(C)C[C@H](NC(=O)OC(C)(C)C)C(=O)N1CCC(C(=O)O)CC1", "note": "[CBK286742]", "% of control remaining": 139.75}
{"smiles": "O=[N+]([O-])c1ccccc1N/N=C/c1c[nH]c2ccccc12", "note": "[CBK261679]", "% of control remaining": 100}
{"smiles": "COc1ccc(CC(=O)N2CCC[C@@H](N)[C@@H]2c2ccccc2F)cc1", "note": "[CBK283456]", "% of control remaining": 118.984}
{"smiles": "CSc1ccc(NS(=O)(=O)c2ccc(NC(C)=O)c(Cl)c2)cc1", "note": "[CBK043566]", "% of control remaining": 93.1095}
{"smiles": "COc1ccc(C(NC(=O)c2cccc(OC)c2)c2cc(Cl)c3cccnc3c2O)cc1", "note": "(stereo not shown) [CBK264027]", "% of control remaining": 100}
{"smiles": "COc1ccc(CCNC(=O)CC2Sc3ccc(C(F)(F)F)cc3NC2=O)cc1OC", "note": "(stereo not shown) [CBK265341]", "% of control remaining": 91.4963}
{"smiles": "O=C(NCCCO)c1cc2ccccc2[nH]1", "note": "[CBK267638]", "% of control remaining": 133.498}
{"smiles": "Cc1ccc(C)c(S(=O)(=O)NCC(=O)Nc2nsc(-c3ccccc3)n2)c1", "note": "[CBK267304]", "% of control remaining": 91.2908}
{"smiles": "O=S(=O)(c1ccc(NC(=S)NCc2cccnc2)cc1)N1CCOCC1", "note": "[CBK268396]", "% of control remaining": 119.606}
{"smiles": "CCc1ccc(-c2cnccc2-n2ccnc2)cc1", "note": "[CBK177151]", "% of control remaining": 155.771}
{"smiles": "CC(=O)N(C)c1nc(-c2cccc(N(C)C)c2)ccc1C(=O)NCCc1ccc(S(N)(=O)=O)cc1", "note": "[CBK076578]", "% of control remaining": 123.411}
{"smiles": "O=C(C1=C(O)C(=O)N(CCCn2ccnc2)C1c1cccs1)c1ccc2c(c1)OCCO2", "note": "(stereo not shown) [CBK266170]", "% of control remaining": 147.177}
{"smiles": "CN(C)CCNc1ncnc2sc3c(c12)CCC3", "note": "[CBK265347]", "% of control remaining": 100}
{"smiles": "COc1ccc(CO)cc1OCc1ccccc1", "note": "[CBK051334]", "% of control remaining": 130.162}
{"smiles": "O=C(/C=C\\c1cccs1)NC(=S)Nc1ccc([N+](=O)[O-])cc1O", "note": "[CBK261231]", "% of control remaining": 103.291}
{"smiles": "OCCOc1cccnc1OCC1CC1", "note": "[CBK001461]", "% of control remaining": 121.08}
{"smiles": "CCCn1c(SCC(=O)Nc2cc(C(C)(C)C)no2)n[nH]c1=O", "note": "[CBK295648]", "% of control remaining": 149.213}
{"smiles": "O=C(O)Cn1nc(-c2ccccc2)c2ccccc2c1=O", "note": "[CBK287249]", "% of control remaining": 104.311}
{"smiles": "Cc1nc(C(=O)NC2CC(=O)N(CCc3ccc(F)cc3)C2)cs1", "note": "(stereo not shown) [CBK307473]", "% of control remaining": 150.205}
{"smiles": "Cc1cc(-c2c(C)n(-c3ccccc3)[nH]c2=O)n2ncnc2n1", "note": "[CBK288441]", "% of control remaining": 136.923}
{"smiles": "Cc1nc(N2CCCCC2)ncc1C(=O)NCCSc1nncn1C", "note": "[CBK306955]", "% of control remaining": 182.304}
{"smiles": "COc1ccc(C(C)C)cc1-c1cc2ncccc2nc1N", "note": "[CBK081202]", "% of control remaining": 103.488}
{"smiles": "O=C(c1ccc(CO)o1)N1CCn2cc(C(F)(F)F)nc2C1", "note": "[CBK283914]", "% of control remaining": 128.061}
{"smiles": "Cc1cc(=O)nc(N/C(N)=N/c2cccc([N+](=O)[O-])c2)[nH]1", "note": "[CBK264857]", "% of control remaining": 94.3675}
{"smiles": "CCOC(=O)c1c(C)n(-c2ccccc2)c2ccc(O)c(CN(C)C)c12", "note": "[CBK261593C]", "% of control remaining": 51.5655}
{"smiles": "FC(F)(F)c1ccc(CN2CCCC3(C2)NCCc2c3[nH]c3ccccc23)cc1", "note": "(stereo not shown) [CBK040095]", "% of control remaining": 98.8497}
{"smiles": "N#CCCN(Cc1cccnc1)C(=O)Cc1noc2ccccc12", "note": "[CBK304001]", "% of control remaining": 84.1328}
{"smiles": "O=C(Nc1ccc2ncccc2c1)c1ccoc1", "note": "[CBK159823]", "% of control remaining": 116.689}
{"smiles": "Cn1cc([C@H]2C[C@@H](O)[C@@H](CO)O2)c(=O)n(C)c1=O", "note": "[CBK201272]", "% of control remaining": 182.914}
{"smiles": "Fc1ccc(-c2ccc(CNCc3ccncc3)o2)cc1", "note": "[CBK270158C]", "% of control remaining": 125.586}
{"smiles": "COC(=O)C(Nc1cccc(Cl)c1)(c1cc(OC)c(O)c(OC)c1)C(F)(F)F", "note": "(stereo not shown) [CBK009591]", "% of control remaining": 109.506}
{"smiles": "CCCC/C=C/c1nccnc1N(C)Cc1ccccc1", "note": "[CBK037412]", "% of control remaining": 173.468}
{"smiles": "COc1ccc(Nc2cc(Cl)ccc2C(=O)N2CCN(c3ncccn3)CC2)cn1", "note": "[CBK107334]", "% of control remaining": 125.024}
{"smiles": "Cc1ccc2c(CC(=O)N3CCC(C(=O)O)CC3)coc2c1", "note": "[CBK286711]", "% of control remaining": 119.849}
{"smiles": "CC(C)N1CCc2c(sc3nc(SCc4ccc(Cl)cc4)n(Cc4ccccc4)c(=O)c23)C1", "note": "[CBK263745]", "% of control remaining": 106.271}
{"smiles": "CSc1nc(C(=O)NC2CCCN(c3ncccn3)C2)cs1", "note": "(stereo not shown) [CBK307198]", "% of control remaining": 83.0941}
{"smiles": "Cc1nnc(SCc2cc(=O)[nH]c(N3CCN(Cc4ccccc4)CC3)n2)s1", "note": "[CBK268837]", "% of control remaining": 171.642}
{"smiles": "COc1cc(OC)c(NC(=O)CSc2ccccn2)cc1Cl", "note": "[CBK267303]", "% of control remaining": 138.095}
{"smiles": "Cc1c(C)n(Cc2ccco2)c2ncnc(NC(C)C(=O)O)c12", "note": "(stereo not shown) [CBK307561]", "% of control remaining": 93.2935}
